Measured values published in paper PMC1971115.
No constants are given. Whether binding was seen depends on the method and setting. In cells and extracts the contact can be indirect. Binding calls can cover weak binding; strength is not graded here. Blank lines part the entries; values can stand above or below the molecule they belong to.

Columns and labels:
[1] = molecular target: T1, apolipoprotein L-1 (human (endogenous in plasma)) (UniProt O14791); test: co-IP; one-step immunoaffinity chromatography from fresh human plasma; anti-Hpr, anti-ApoL-1 (monoclonal) or anti-ApoA-1 (polyclonal) coupled to Affigel 15, 30 min at 4 °C, washed seven times with PBSE, eluted with 100 mM glycine pH 2.0; non-reducing SDS-PAGE, western blot and LC-MS/MS
T1 sequence: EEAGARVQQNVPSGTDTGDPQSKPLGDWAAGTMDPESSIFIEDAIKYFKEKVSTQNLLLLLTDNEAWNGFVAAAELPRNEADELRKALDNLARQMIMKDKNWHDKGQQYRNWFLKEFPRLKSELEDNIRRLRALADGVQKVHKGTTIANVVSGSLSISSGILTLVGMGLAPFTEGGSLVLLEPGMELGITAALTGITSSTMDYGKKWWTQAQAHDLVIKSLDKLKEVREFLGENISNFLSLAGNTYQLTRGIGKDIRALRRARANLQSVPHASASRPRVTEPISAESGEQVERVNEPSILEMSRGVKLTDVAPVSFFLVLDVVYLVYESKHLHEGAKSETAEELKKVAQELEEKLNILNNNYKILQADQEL

[2] = molecular target: haptoglobin-related protein (human (endogenous in plasma)); test: co-IP; two-step purification from human plasma: high-salt density centrifugation, then antibody affinity chromatography with anti-Hpr; non-reducing 10% SDS-PAGE, Coomassie
[3] = molecular target: haptoglobin-related protein (human (endogenous in plasma)); test: co-IP; one-step immunoaffinity chromatography from fresh human plasma; anti-Hpr, anti-ApoL-1 (monoclonal) or anti-ApoA-1 (polyclonal) coupled to Affigel 15, 30 min at 4 °C, washed seven times with PBSE, eluted with 100 mM glycine pH 2.0; non-reducing SDS-PAGE, western blot and LC-MS/MS

binding [1]: binds weakly
Molecule: haptoglobin (human (endogenous in plasma))

binding [1]: binds
Molecule: haptoglobin-related protein (human (endogenous in plasma))

binding [2]: binds | binding [3]: binds
B1: apolipoprotein L-1 (protein, UniProt O14791 28-398)
chain: T1 sequence
